Two substances from article PMC8425198 can be followed below.

By UniProt entry, the sequences of proteins in these tests, tags left out. Residues count along the entry.
UniProt P09429: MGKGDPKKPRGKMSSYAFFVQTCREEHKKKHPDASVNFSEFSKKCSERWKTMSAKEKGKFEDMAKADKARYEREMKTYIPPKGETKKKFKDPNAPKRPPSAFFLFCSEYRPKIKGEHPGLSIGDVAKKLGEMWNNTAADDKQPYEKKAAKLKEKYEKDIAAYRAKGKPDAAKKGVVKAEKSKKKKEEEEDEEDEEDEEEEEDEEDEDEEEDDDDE
UniProt P54760, residues 16-987: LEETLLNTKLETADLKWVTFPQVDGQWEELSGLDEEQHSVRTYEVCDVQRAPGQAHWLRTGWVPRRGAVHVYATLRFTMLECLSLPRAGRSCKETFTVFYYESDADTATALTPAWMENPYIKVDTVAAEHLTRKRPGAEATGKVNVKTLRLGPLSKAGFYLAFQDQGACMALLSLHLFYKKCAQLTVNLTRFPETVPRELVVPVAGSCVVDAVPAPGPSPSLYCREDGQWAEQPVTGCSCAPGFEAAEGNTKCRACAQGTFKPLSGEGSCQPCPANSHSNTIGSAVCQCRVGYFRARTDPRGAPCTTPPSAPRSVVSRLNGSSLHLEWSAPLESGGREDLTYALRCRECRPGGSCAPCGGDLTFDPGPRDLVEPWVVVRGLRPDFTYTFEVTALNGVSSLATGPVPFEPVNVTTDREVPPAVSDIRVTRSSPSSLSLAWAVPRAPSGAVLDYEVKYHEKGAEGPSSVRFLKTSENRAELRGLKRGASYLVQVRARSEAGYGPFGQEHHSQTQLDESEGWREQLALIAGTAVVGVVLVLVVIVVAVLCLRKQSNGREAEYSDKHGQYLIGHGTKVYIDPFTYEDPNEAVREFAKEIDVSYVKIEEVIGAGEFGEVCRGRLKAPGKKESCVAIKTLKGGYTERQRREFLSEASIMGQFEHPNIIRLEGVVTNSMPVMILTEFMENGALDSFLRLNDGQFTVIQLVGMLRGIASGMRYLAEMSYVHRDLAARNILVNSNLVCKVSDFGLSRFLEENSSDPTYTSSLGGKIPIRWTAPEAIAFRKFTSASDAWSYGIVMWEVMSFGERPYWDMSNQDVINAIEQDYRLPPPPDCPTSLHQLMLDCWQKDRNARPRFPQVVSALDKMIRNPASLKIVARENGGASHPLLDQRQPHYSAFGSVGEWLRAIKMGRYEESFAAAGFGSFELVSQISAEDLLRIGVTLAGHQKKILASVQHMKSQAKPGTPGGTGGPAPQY

These are yes or no findings as the source states them, for the method shown. In cells and extracts the contact can be indirect. Some binding calls cover weakened binding; strength is not graded here.

Assay [1] addresses high-mobility group box 1 (HMGB1) (human (endogenous in SCC9)) (UniProt P09429). The experiment in a line: co-IP; endogenous proteins; NP-40 lysate incubated with anti-EPHB4 or anti-HMGB1 or IgG (control) at 4 °C for 2 hours, protein A/G agarose overnight at 4 °C, washed with NP-40 3 times, western blot; cell line not stated.
Assay [2] concerns the target Erythropoietin-producing human hepatocellular B4 (EPHB4) (human (endogenous in SCC9)) (UniProt P54760). The assay is described as above.

With “Erythropoietin-producing human hepatocellular B4 (EPHB4) (from UniProt P54760 16-987) (receptor)”, the binding result in assay [1] is recorded as “binds”.
For “high-mobility group box 1 (HMGB1) (from UniProt P09429 1-215)”, the binding result in assay [2] is “binds”.
